The target in the experiment is CD99 antigen (Origene, Sku #TP304058) (UniProt P14209). As to the kind of experiment: ELISA on coated CD99 antigen (FIG. 4).

Chains of the proteins cited; added tags and fusions are not shown. Residues count along the entry.
UniProt P14209, residues 23-185: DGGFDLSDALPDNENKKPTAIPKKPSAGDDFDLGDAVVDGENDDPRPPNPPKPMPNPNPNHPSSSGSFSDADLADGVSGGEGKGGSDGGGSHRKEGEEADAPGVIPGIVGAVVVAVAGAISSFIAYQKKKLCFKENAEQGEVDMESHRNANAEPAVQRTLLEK

Results are given in words; binding and its absence hold for the method and conditions named. Some entries that bind do so weakly or less than the wild type.

B1: 4C5E2 (antibody, V domains shown)
VH: EVQLEESGGGLVQPKGSLKLSCAASGFTFNTYAMYWVCQAPGKGLKWVARIRSKVNNYATYYADSVKDRFTISRDDSQNMLFLHMNNLKTEDTAIYFCVRDPMDYWGQGISVTVSS
VL: DIVMTQAAPSVPVTPGESVSISCGSSKSLLHSNGNTYLYWFLQRPGQSPQLLIYRVSNLASGVPDRFSGSGSGTAFTLRISRVEAEDVGVYYCMQHLEYPYTFGGGTRLEIK
Consider B1, for which the binding entry was “binds”.

B2: 4C5H10 (antibody, V domains shown)
VH: EVQLVESGGGLVQPKGSLKLSCAASGFTFNTYAMYWVCQAPGKGLKWVARIRSKVNNYATYYADSVKDRFTISRDDSQNMLFLHMNNLKTEDTAIYFCVRDPMDYWGQGISVTVSS
VL: DIVMTQAAPSVPVTPGESVSISCGSSKSLLHSNGNTYLYWFLQRPGQSPQLLIYRVSNLASGVPDRFSGSGSGTAFTLRISRVEAEDVGVYYCMQHLEYPYTFGGGTRLEIK
On to B2, for which the binding entry was “binds”.

Source of the values: patent US20230257477A1.
